Results: PubChem BioAssay AID328 (DTP/NCI, 2004)
The list does not hold the whole screen: it is rich in T/C values a quarter to a half above the control, in often repeated tests (any T/C) and in doses without a T/C. Other doses and runs of a compound stand elsewhere. T/C is the treated group as % of the vehicle group. Some doses have a count of surviving animals in place of a T/C: the source files T/C as zero there, which appears to mark a toxic dose or a test without result, not a measured value. Some doses without a T/C left all or most animals alive at the check, yet need not have been tolerated: the source hardly ever lists a survival T/C far under the control, and the zero likely stands for such cases as well. Counts of survivors are from the toxicity check (mostly the fifth day) where no day follows; animals may have died later. Schedules are NCI's codes, taken here to give the interval after Q, in days (D) or hours (H), and the number of doses after X. For survival time, this PubChem deposit counts one and a half times the control or more as active, and values a quarter to a half above the control carry no call in these data; other NCI protocols may use other cut-offs.

Tested on: BDF1 mice, P388 leukemia ip, median survival T/C
Assay: NCI In Vivo Anticancer Drug Screen. Data for tumor model P388 Leukemia (intraperitoneal) in B6D2F1 (BDF1) mice
Details: T/C endpoint: median survival time, higher T/C = longer survival
Outline: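 Steps: implant the tumour, treat one group with compound and another with vehicle, record survival, then divide treated by control.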

[1] = dose: 50.0 mg/kg/injection, schedule: Q01DX009 (ip), vehicle: Klucel (hydroxypropylcellulose) (HPC)
[2] = dose: 200.0 mg/kg/injection, schedule: Q01DX009 (ip), vehicle: saline with Tween-80
[3] = dose: 400.0 mg/kg/injection, schedule: Q01DX009 (ip), vehicle: saline with Tween-80
[4] = dose: 200.0 mg/kg/injection, schedule: Q01DX009 (ip), vehicle: saline
[5] = dose: 400.0 mg/kg/injection, schedule: Q04DX003 (ip), vehicle: saline
[6] = dose: 100.0 mg/kg/injection, schedule: Q04DX003 (ip), vehicle: saline
[7] = dose: 200.0 mg/kg/injection, schedule: Q04DX003 (ip), vehicle: saline

For `O=[N+]([O-])c1ccc(N=Nc2c(Cl)cc(O)cc2Cl)cc1`, the survivor count (dose: 25.0 mg/kg/injection, schedule: Q01DX009 (ip), vehicle: saline with Tween-80) was 5 of 6, the T/C [1] was 135 % of control and the survivor count (dose: 50.0 mg/kg/injection, schedule: Q01DX009 (ip), vehicle: saline with Tween-80) was 6 of 6. The survivor count (dose: 100.0 mg/kg/injection, schedule: Q01DX009 (ip), vehicle: saline with Tween-80) was 5 of 6, the survivor count [2] was 0 of 6 and the survivor count [3] was 0 of 6.
`COc1cc([N+](=O)[O-])cc(C=O)c1OC(=O)c1ccccc1` was tested, and the survivor count [2] was 5 of 6 and the survivor count [3] was 1 of 6.
With `Cc1nccnc1N` the survivor count [4] was 3 of 6 and the survivor count [5] was 6 of 6.
With `Cn1ncc2c(N)c(C#N)c(=O)[nH]c21` the survivor count (dose: 200.0 mg/kg/injection, schedule: Q01DX001 (ip), vehicle: saline with Tween-80) was 0 of 6 and the survivor count (dose: 400.0 mg/kg/injection, schedule: Q01DX001 (ip), vehicle: saline with Tween-80) was 3 of 6.
In the case of `O=C(Nc1cccc(C(=O)Nc2ccc(C3=NCCN3)cc2)c1)c1ccc(C2=NCCN2)cc1`, the T/C (dose: 25.0 mg/kg/injection, schedule: Q01DX009 (ip), vehicle: saline) is reported as 136 % of control, the T/C (dose: 37.5 mg/kg/injection, schedule: Q01DX009 (ip), vehicle: saline) is reported as 145 % of control and the survivor count [6] is reported as 0 of 6. For the same compound, the survivor count [7] was 0 of 6 and the survivor count [5] was 0 of 6.
With `CCOC(=O)C(C)(C)CN(CC(C)(C)C(=O)OCC)C(C)(C)C` the T/C (dose: 200.0 mg/kg/injection, schedule: Q01DX001 (ip), vehicle: saline) was 140 % of control.
With `COc1cc(N(CCCl)CCCl)ccc1C=Nc1ccccc1C(=O)O` the survivor count (dose: 10.0 mg/kg/injection, schedule: Q01DX009 (ip), vehicle: saline) was 6 of 6 and the survivor count (dose: 20.0 mg/kg/injection, schedule: Q01DX009 (ip), vehicle: saline) was 6 of 6.
In the case of `COc1cc2ccc3cc[n+](C)cc3c2cc1OC`, the survivor count (dose: 100.0 mg/kg/injection, schedule: Q01DX009 (ip), vehicle: saline) is reported as 5 of 6, the survivor count [4] is reported as 3 of 6 and the survivor count [7] is reported as 5 of 6. For the same compound, the survivor count [5] was 2 of 6.
In the case of `N=C(N)SCc1c2ccccc2cc2ccccc12`, the T/C (dose: 88.0 mg/kg/injection, schedule: Q04DX003 (ip), vehicle: Klucel (hydroxypropylcellulose) (HPC)) is reported as 127 % of control, the T/C (dose: 132.0 mg/kg/injection, schedule: Q04DX003 (ip), vehicle: Klucel (hydroxypropylcellulose) (HPC)) is reported as 131 % of control and the T/C (dose: 132.0 mg/kg/injection, schedule: Q04DX003 (ip), vehicle: saline with Tween-80) is reported as 145 % of control. For the same compound, the T/C (dose: 200.0 mg/kg/injection, schedule: Q04DX003 (ip), vehicle: Klucel (hydroxypropylcellulose) (HPC)) was 136 % of control and the T/C (dose: 300.0 mg/kg/injection, schedule: Q04DX003 (ip), vehicle: Klucel (hydroxypropylcellulose) (HPC)) was 145 % of control.
`Cc1ncc(CO)c(C2NOCc3ccc(Cl)cc32)c1O` (centres undefined) was tested, and the survivor count [1] was 1 of 6.
For `COc1ccc(NC(=S)NN)cc1`, the T/C (dose: 100.0 mg/kg/injection, schedule: Q04DX003 (ip), vehicle: saline with Tween-80) was 130 % of control.
For `CCSc1ncnc2nc[nH]c12`, the survivor count (dose: 400.0 mg/kg/injection, schedule: Q04DX003 (ip), vehicle: Klucel (hydroxypropylcellulose) (HPC)) was 1 of 6.
`CCCCCCCCCCCC1CCCC(C)N1` (centres undefined) was tested, and the survivor count [6] was 6 of 6 and the survivor count [7] was 6 of 6.
